Measured values reported in doi:10.1101/2020.04.21.053348.
Results are given in words; binding and its absence hold for the method and conditions named. For some of these results: Binding seen in cells or lysates may run through a third protein. Some results given as binding are weak or reduced against the parent protein; the word gives no strength. Tags and fused reporters may be left off the sequences shown. Values belong to the molecule of their own block, whether it stands above or below them.

The chains behind the UniProt entries cited, without tags or fusion partners. Where a name states a change or a piece, a line headed by the entry shows the natural chain unless it says otherwise. A line that says so, or that is headed by a name, gives the form on record, which may keep a tag or linker.
UniProt Q99527: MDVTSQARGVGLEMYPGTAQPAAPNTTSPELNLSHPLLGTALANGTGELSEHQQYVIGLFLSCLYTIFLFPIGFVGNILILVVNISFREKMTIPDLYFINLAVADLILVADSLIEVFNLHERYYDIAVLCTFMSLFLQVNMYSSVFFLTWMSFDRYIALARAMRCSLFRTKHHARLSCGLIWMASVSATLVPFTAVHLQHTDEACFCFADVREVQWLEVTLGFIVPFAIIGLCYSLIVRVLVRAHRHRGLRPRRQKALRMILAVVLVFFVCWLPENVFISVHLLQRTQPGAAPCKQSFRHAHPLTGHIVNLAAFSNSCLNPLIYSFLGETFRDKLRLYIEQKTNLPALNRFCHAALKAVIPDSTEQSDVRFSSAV
GPER(mut)/venus-tagged (GPER with fifteen alanine replacements in H6, H7 and H8) (Q99527, form named): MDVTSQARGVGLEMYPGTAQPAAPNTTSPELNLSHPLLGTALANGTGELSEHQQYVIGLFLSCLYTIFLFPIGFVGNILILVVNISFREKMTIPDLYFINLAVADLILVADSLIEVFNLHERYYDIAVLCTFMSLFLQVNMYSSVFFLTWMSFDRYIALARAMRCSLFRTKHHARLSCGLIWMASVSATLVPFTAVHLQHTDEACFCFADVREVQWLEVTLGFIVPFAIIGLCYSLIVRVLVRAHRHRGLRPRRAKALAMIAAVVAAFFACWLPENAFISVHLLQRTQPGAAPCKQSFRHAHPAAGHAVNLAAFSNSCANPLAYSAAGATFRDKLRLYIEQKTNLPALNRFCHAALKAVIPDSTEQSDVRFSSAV

Assays:
[1] = molecular target: T1, FSHR/rluc (follicle stimulating hormone receptor, rluc-tagged BRET donor) (UniProt P23945); assay: FRET or BRET
T1 sequence: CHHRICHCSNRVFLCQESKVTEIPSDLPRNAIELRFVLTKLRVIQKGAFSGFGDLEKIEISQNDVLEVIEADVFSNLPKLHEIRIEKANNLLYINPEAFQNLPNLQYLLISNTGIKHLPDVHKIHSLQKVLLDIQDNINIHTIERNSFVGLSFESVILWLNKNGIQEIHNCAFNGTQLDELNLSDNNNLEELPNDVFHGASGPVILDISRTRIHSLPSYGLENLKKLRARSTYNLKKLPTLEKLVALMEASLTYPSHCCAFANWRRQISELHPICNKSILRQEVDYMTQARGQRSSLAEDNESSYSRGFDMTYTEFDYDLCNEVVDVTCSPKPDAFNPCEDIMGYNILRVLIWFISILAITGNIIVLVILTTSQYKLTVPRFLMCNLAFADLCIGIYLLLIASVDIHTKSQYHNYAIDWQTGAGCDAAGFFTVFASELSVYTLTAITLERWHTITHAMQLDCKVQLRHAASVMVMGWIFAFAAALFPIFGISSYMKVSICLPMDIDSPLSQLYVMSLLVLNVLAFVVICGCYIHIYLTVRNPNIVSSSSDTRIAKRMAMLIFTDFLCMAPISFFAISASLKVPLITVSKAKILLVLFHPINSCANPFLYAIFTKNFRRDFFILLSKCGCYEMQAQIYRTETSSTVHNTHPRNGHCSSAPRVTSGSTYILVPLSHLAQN

HA-tagged FSHR = molecular target: T2, HA-tagged FSHR (UniProt P23945); assay: photo-activated localization microscopy with photoactivatable dyes
T2 sequence: T1 sequence

HA-tagged FSHR, P23945 = molecular target: T3, HA-tagged FSHR, P23945; assay: as above; conditions: remark: other sources report otherwise
T3 chain: T1 sequence

- binding [1]: binds
Molecule: GPER/venus (G protein coupled estrogen receptor, venus-tagged BRET acceptor) (from UniProt Q99527 1-375)

- binding [1]: no binding
Molecule: GPER(mut)/venus-tagged (GPER with fifteen alanine replacements in H6, H7 and H8) (from UniProt Q99527 1-375) (receptor)

- binding (HA-tagged FSHR): binds
Molecule: FLAG-tagged GPER (from UniProt Q99527 1-375) (receptor)

- binding (HA-tagged FSHR, P23945): binds
B1: HA-tagged FSHR, P23945 18-695 (receptor)
chain: T1 sequence
